Data from US5496947A, “Quinolone carboxylic acid derivatives” (Dong Wha Pharmaceutical Industrial Co., Ltd., priority 1994, dated 1996).

Experiment: Pharmacokinetic properties in ICR mouse, oral and subcutaneous, Bio-Assay (Agar well method)
Conditions: in vivo, 40 mg/kg
Procedure: The pharmacokinetic properties are tested by orally administrating and subcutaneously injecting a test compound and a substance for control to a ICR Mouse with 22 g±10% weight, drawing blood after 10, 20, 30, 45, 60, 90, 120, 150, 180 and […] and analyzed by Bio-Assay (Agar well method).

Compound: O=C(O)c1cn(C2CC2)c2cc(N3CCNCC3)c(F)cc2c1=O [Ciprofloxacin, reference compound]
- AUC (po): 2270 ng·h/mL
- Cmax (po): 1710 ng/mL
- Tmax (po): 1.47 h
- AUC (sc): 15600 ng·h/mL
- Cmax (sc): 7770 ng/mL
- Tmax (sc): 1.56 h
